The source of these data is article PMC6739395.

By UniProt entry, the sequences of proteins in these tests, tags left out. Where a name states a change or a piece, a line headed by the entry shows the natural chain unless it says otherwise. Residues count along the entry.
UniProt Q9UGM3: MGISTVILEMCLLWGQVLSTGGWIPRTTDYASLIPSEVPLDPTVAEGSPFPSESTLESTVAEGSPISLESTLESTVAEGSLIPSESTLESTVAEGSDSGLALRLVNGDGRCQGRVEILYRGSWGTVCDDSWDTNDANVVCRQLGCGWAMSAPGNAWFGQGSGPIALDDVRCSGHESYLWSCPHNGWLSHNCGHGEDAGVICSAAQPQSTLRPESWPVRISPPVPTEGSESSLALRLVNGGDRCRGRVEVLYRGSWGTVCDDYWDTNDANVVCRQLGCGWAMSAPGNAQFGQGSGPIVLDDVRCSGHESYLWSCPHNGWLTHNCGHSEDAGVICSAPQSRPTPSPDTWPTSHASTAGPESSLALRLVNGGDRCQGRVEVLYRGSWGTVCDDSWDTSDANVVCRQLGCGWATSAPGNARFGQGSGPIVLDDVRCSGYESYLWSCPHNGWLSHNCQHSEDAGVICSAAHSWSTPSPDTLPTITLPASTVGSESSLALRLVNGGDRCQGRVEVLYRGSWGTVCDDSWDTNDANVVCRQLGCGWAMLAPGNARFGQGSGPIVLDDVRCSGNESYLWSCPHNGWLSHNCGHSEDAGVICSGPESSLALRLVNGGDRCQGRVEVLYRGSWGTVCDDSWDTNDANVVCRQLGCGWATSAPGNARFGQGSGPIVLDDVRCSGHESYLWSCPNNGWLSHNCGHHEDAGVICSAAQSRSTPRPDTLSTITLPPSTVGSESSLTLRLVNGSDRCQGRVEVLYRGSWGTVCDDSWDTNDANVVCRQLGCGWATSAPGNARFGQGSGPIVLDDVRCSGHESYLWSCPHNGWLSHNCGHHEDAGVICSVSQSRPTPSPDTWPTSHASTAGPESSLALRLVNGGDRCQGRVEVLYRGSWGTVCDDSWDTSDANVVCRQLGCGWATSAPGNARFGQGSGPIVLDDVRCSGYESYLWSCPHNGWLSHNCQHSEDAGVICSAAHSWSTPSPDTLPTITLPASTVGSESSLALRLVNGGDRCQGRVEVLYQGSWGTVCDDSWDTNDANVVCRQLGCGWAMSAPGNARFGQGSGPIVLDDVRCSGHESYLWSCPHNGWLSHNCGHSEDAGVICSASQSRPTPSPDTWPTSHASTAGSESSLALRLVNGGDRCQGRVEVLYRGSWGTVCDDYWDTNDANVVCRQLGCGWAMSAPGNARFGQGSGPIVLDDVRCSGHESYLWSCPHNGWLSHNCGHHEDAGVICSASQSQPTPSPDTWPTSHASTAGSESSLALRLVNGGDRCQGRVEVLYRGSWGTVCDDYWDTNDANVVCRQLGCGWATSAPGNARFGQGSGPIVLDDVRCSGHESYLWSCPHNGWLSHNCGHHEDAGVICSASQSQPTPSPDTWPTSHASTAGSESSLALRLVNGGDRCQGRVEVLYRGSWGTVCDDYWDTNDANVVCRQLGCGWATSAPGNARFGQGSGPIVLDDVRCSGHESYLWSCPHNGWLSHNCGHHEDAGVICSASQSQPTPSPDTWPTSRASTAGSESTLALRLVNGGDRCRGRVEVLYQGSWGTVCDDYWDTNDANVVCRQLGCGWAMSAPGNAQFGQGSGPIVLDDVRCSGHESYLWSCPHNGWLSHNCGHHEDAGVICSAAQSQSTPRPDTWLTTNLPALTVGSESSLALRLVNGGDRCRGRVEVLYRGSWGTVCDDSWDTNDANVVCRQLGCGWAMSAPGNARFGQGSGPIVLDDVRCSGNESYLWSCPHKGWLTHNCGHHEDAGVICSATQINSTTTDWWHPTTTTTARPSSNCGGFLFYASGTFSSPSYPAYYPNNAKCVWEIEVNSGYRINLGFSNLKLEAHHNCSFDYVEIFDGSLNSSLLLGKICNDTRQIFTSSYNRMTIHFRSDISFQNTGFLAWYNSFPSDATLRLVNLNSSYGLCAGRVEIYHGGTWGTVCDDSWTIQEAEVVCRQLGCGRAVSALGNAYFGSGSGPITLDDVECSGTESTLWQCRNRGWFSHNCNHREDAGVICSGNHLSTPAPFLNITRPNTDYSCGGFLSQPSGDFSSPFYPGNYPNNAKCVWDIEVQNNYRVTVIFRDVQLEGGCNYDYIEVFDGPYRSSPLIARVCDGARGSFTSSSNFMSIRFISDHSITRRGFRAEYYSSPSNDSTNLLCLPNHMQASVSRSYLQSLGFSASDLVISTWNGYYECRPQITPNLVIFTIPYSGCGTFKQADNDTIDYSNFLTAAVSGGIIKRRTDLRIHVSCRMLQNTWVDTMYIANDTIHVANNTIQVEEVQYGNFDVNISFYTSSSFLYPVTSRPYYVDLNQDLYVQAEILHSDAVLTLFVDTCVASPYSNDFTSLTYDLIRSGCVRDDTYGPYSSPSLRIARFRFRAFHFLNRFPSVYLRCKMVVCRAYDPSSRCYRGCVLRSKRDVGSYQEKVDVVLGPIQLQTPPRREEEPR
de-N-glycosylated DMBT1 (salivary DMBT1 digested with PNGase F): residues 20-2413 of Q9UGM3
recombinant truncated human DMBT1 (Met 1-Ser 220): residues 20-220 of Q9UGM3

Experiment in all cases: far-Western, overlay or dot blot; dot-immunoblot: 2 µL of DMBT1 or other protein or peptide (400-500 ng) spotted on a nitrocellulose membrane, blocked with 5% BSA, incubated with undiluted PAO1 pili extract for 40 min at RT in PBS, bound pili detected with anti-PilA antibody; only the target purified
The target of experiment [1] is recombinant truncated human DMBT1 (Met 1-Ser 220) (human) (UniProt Q9UGM3).
Experiment [2] deals with DMBT1 (Deleted in Malignant Brain Tumors 1) purified from human saliva (human) (UniProt Q9UGM3).
Experiment [3] deals with de-N-glycosylated DMBT1 (salivary DMBT1 digested with PNGase F) (human) (UniProt Q9UGM3).

No constants are given. Whether binding was seen depends on the method and setting. Some results given as binding are weak or reduced against the parent protein; the word gives no strength.

B1: P. aeruginosa PAO1 pili (Type IV pili, polymer predominately of the PilA subunit) (protein, UniProt P04739 7-149)
chain: FTLIELMIVVAIIGILAAIAIPQYQNYVARSEGASALATINPLKTTVEESLSRGIAGSKIKIGTTASTATETYVGVEPDANKLGVIAVAIEDSGAGDITFTFQTGTSSPKNATKVITLNRTADGVWACKSTQDPMFTPKGCDN
As for B1, the binding entry in experiment [1] is “no binding (tested: 500 ng spotted)”; in experiment [2], “binds”; in experiment [3], “binds”.
